Results reported in PubChem BioAssay AID2551 (National Center for Advancing Translational Sciences (NCATS), 2010).
Out of some 310,000 compounds screened, about 17,000 (5.5%) were called active. Inconclusive means that the source gave no clear call. Such entries were picked first, then a sample of the others. Calls come from the whole dose curve; as a rule, active = well fitted inhibition curve with a large enough effect; inconclusive = small, poorly fitted or top-dose-only effect, or effect the other way; inactive = no such curve, though single readings can be large or run the other way. A potency beside an inconclusive call is a rough fit, not a confirmed value.

Protein sequences, listed by entry. Tags and fused reporters are not part of them. Lines headed by an entry give the natural chain unless they say otherwise; changes in a name come on top.
UniProt P51450: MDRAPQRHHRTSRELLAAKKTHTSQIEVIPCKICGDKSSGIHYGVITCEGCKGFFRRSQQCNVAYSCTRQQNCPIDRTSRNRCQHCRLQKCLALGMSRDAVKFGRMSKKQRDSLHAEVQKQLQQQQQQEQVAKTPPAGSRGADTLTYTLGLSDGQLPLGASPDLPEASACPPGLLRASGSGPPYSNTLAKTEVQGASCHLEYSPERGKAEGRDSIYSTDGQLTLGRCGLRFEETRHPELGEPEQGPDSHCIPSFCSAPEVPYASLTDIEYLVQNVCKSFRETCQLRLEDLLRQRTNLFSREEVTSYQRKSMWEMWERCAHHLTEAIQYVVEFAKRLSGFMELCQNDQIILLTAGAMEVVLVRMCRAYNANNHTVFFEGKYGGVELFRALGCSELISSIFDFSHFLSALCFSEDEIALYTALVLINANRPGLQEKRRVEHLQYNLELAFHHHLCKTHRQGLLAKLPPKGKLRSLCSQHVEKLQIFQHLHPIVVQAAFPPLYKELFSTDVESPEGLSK

biological target: Nuclear receptor ROR-gamma (Mus musculus) (UniProt P51450); experiment: qHTS for inhibitors of ROR gamma transcriptional activity; conditions: Drosophila S2 Gal4-RORgamma UAS-luciferase reporter, 20 h; activity change, negative = inhibition: at 53.6 µM (top of the series); note: nearly all actives have a fitted effect of over 60% in size
Procedure, shortened: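 A Gal4/UAS one-hybrid system in insect cells: metallothionein-promoter Gal4–ROR gamma fusion plus Photinus luciferase reporter. Copper sulfate 700 uM final, 20 hr ambient incubation, luminescent detection after 10 min with reagent.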
% is set by controls: 0 for no effect and ±100 for the full control effect; potency is the fitted concentration of half-maximal effect.

SMILES | Potency | activity change, negative = inhibition
O=[N+]([O-])c1ccc(CS(=O)(=O)N2CCN(c3ccccc3)CC2)cc1 | inactive | –
CCN(C(=S)NCc1ccccc1)c1cccc2ccccc12 | active: 7.08 µM | –
CCOC(=O)C1(CCc2ccccc2)CCN(Cc2cc(OC)c(OC)cc2OC)CC1 | inconclusive: 35.5 µM [activator, single point] | –
CC/C(=N\NC(=S)Nc1cccc(C)c1)c1ccccc1 | inconclusive: 35.5 µM [inhibitor, single point] | –
COc1ccc(-c2n[nH]c(=S)n2-c2ccc(C)cc2)cc1OC | active: 15.8 µM | –
COC(=O)N/N=C/c1cn(CCCOc2ccc(C)cc2)c2ccccc12 | inconclusive: 0.316 µM [inhibitor, full curve, poor fit] | –
COc1cc(NC(=O)C(=O)NNC(=O)C2CCCCC2)c(OC)cc1Cl | inconclusive: 35.5 µM [inhibitor, single point] | –
O=C(N/N=C/C(Br)=C/c1ccccc1)C1CC1 | inconclusive: 35.5 µM [inhibitor, single point] | –
COC(=O)c1ccccc1NC(=O)c1sc(Cl)nc1C | inconclusive: 14.1 µM [activator, single point] | –
CCc1ccc(/C=C2/C(=O)N(CC)C(=S)N2C)s1 | inconclusive: 10 µM [activator, partial curve, poor fit] | –
CCc1ccc(C(=O)COc2ccc(NC(C)=O)cc2)cc1 | inconclusive: 5.62 µM [activator, single point] | –
Cc1ccc2c(CC(=O)N3CCN(S(=O)(=O)c4ccc5c(c4)OCCO5)CC3)coc2c1 | inconclusive: 12.6 µM [activator, single point] | –
CCc1nc(-c2ccc(-c3ccc(OC)cc3)nc2OC)no1 | inconclusive: 3.98 µM [activator, full curve, poor fit] | –
Cc1cc(Cl)ccc1NC(=S)NCc1ccc(F)cc1 | active: 6.31 µM | –
S=C(NCc1ccccc1)Nc1ccc(Oc2ccccc2)cc1 | active: 12.6 µM | –
NNc1nc(-c2ccccc2Cl)nc2sc3c(c12)CCCC3 | inconclusive: 35.5 µM [inhibitor, single point] | –
Cc1ccc(-c2noc(-c3ccccc3C(=O)N3CCOCC3)n2)cc1 | inconclusive: 20 µM [activator, single point] | –
Cc1ccc(NC(=O)c2noc3c2CCCCC3)cc1 | inconclusive: 14.1 µM [inhibitor, single point] | –
Cc1ccc2ccc(S(=O)(=O)NCc3ccco3)cc2c1 | inactive | –
CC(C)Oc1ccc(CNC(=O)c2ccc3c(c2)N(C)CCS3)cc1 | inconclusive: 35.5 µM [activator, single point] | –
CCCCNC(=O)NNC(=O)c1cc(C)on1 | inactive | –
CC(C)c1c(C(=O)N/N=C/c2cccs2)nnn1-c1nonc1N | inconclusive: 6.31 µM [inhibitor, single point] | –
CCOC(=O)C1=C(Nc2ccccc2)CC(C)(O)C(C(=O)OCC)C1c1ccc(Cl)cc1 (stereo not drawn) | inconclusive: 12.6 µM [activator, single point] | –
CCOc1ccc(NC(=O)Nc2nc(SCC)ns2)cc1 | inactive | –

SMILES | Potency | activity change, negative = inhibition
COc1ccc(CCc2nnc(CCC(=O)NCc3cnc4ccccn34)o2)cc1 | inconclusive: 10 µM [activator, partial curve] | –
O=C(/C=C/c1ccco1)NC(=S)Nc1ccccc1 | active: 7.08 µM | –
Cc1ccc(NC(=O)c2ccc(NCc3ccco3)c([N+](=O)[O-])c2)cc1Cl | inconclusive: 0.501 µM [activator, single point] | –
O=C(C1=C[C@H](c2csc3ccccc23)C[C@H](OCc2ccc(CO)cc2)O1)N1CCN(Cc2ccc3c(c2)OCO3)CC1 | inactive | –
C[C@H]1COC(=O)[C@H]2CCCN2C(=O)[C@@H](C)COC(=O)[C@H](Cc2ccccc2)NC1=O | – | inactive: 2.71% [at 10 µM]
Cc1ccc(O)c(/C=N/NC(=O)CN2CCCC2)c1 | active: 12.6 µM | –
O=C(NNC(=O)c1ccccc1OCc1ccc(F)cc1)c1ccccc1O | active: 4.47 µM | –
CN(C)CCCNC(=S)N(CCN(C)C)Cc1cc2cc3c(cc2[nH]c1=O)OCCO3 | inactive | –
Cc1cccc(OCC(O)CN2CCOCC2)c1 (stereo not drawn) | inconclusive: 0.316 µM [inhibitor, full curve, poor fit] | –
CC(C)c1ccccc1-n1c(SCc2cc(=O)oc3ccc4ccccc4c23)nnc1-c1cccnc1 | inconclusive: 0.251 µM [inhibitor, full curve, poor fit] | –
CCCC(=O)Nc1nc(C)c(-c2csc(Nc3cc(OC)ccc3OC)n2)s1 | inconclusive: 11.2 µM [activator, partial curve] | –
CN1CCC(N(C)C(=O)/C=C/c2cn(-c3ccccc3)nc2-c2cccs2)CC1 | inconclusive: 25.1 µM [inhibitor, single point] | –
CCOC(=O)c1c(Nc2ccccc2OCCOC)n[nH]c1C | inactive | –
CC(C)CN1CC2(CCN(S(=O)(=O)c3ccccc3)CC2)C1 | inactive | –
Cn1c(NCCN2CCOCC2)nc2c1c(=O)n(Cc1cccc(Cl)c1)c(=O)n2C | inactive | –
Cc1c(Cl)cccc1Nc1nc(N)nc(CSC(=S)N2CCOCC2)n1 | inconclusive: 35.5 µM [activator, single point] | –
COc1ccc(NC(=O)c2cccc(Cn3cc(Br)c([N+](=O)[O-])n3)c2)c(C)c1 | inconclusive: 22.4 µM [activator, single point] | –
C=CCc1c(C)[nH]c(=O)[nH]c1=O | inactive | –
Cc1nc(NNC(=O)c2ccccc2)cc(-c2ccccc2)n1 | inconclusive: 35.5 µM [inhibitor, single point] | –
Cc1cccc(NC(=O)CSc2nnnn2-c2cccnc2)c1 | inactive | –
Cc1nn(CC2CC2)c(=O)n1-c1ccc(Cl)cc1 | inactive | –
C/C(=N\Nc1cccc(C(F)(F)F)c1)c1ccc(O)cc1 | inactive | –
Cc1ccc(C(=O)C[n+]2cccc3ccccc32)cc1 | inconclusive: 35.5 µM [activator, single point] | –
O=C(c1ccc(Nc2nccc(-c3cc4ccccc4s3)n2)cc1)N1CCC(N2CCCC2)CC1 | inconclusive: 22.4 µM [inhibitor, single point] | –

Exported in markdown: entries from further up

| SMILES | Potency | activity change, negative = inhibition |
| --- | --- | --- |
| CC(C)CN1CC2(CCN(S(=O)(=O)c3ccccc3)CC2)C1 | inactive | – |
| Cn1c(NCCN2CCOCC2)nc2c1c(=O)n(Cc1cccc(Cl)c1)c(=O)n2C | inactive | – |
| Cc1c(Cl)cccc1Nc1nc(N)nc(CSC(=S)N2CCOCC2)n1 | inconclusive: 35.5 µM [activator, single point] | – |
| COc1ccc(NC(=O)c2cccc(Cn3cc(Br)c([N+](=O)[O-])n3)c2)c(C)c1 | inconclusive: 22.4 µM [activator, single point] | – |
